Measured values as given in PMC3607558.
These are yes or no findings as the source states them, for the method shown. Binding seen in cells or lysates may run through a third protein. Some entries that bind do so weakly or less than the wild type.

By UniProt entry, the sequences of proteins in these tests, tags left out.
UniProt P29067: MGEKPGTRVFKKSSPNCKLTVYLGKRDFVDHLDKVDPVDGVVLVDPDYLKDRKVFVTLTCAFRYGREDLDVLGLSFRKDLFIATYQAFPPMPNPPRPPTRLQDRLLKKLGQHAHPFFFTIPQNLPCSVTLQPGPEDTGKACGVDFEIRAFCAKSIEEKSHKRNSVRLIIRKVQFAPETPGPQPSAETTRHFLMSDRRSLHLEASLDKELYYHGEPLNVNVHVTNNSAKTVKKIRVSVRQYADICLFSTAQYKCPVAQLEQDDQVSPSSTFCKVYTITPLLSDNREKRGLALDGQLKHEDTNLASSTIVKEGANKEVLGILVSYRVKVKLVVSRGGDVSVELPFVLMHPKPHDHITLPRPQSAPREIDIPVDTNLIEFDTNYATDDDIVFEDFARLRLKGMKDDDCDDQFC

Target: β-arrestin 2 (rat (endogenous in primary alveolar macrophages)) (UniProt P29067)
Test: co-IP; anti-β-arrestin 2 (5 µg/ml) on Dynabeads; 100 µg lysate of rat AM (RIPA: 50 mM Tris-HCl, 150 mM NaCl, 1% NP-40, pH 8.0) overnight at 4°C; washed three times with PBS; Western analysis on TLR4; cells untreated or treated with LPS (100 ng/ml), SP-A (40 µg/ml) or both

B1: TLR4 (receptor, UniProt Q9QX05 26-835)
chain: NPCIEVLPNITYQCMDQNLSKIPHDIPYSTKNLDLSFNPLKILRSYSFTNFSQLQWLDLSRCEIETIEDKAWHGLNQLSTLVLTGNPIKSFSPGSFSGLTNLENLVAVETKMTSLEGFHIGQLISLKKLNVAHNLIHSFKLPEYFSNLTNLEHVDLSYNYIQTISVKDLQFLRENPQVNLSLDLSLNPIDSIQAQAFQGIRLHELTLRSNFNSSNVLKMCLQNMTGLHVHRLILGEFKNERNLESFDRSVMEGLCNVSIDEFRLTYINHFSDDIYNLNCLANISAMSFTGVHIKHIADVPRHFKWQSLSIIRCHLKPFPKLSLPFLKSWTLTTNREDISFGQLALPSLRYLDLSRNAMSFRGCCSYSDFGTNNLKYLDLSFNGVILMSANFMGLEELEYLDFQHSTLKKVTEFSVFLSLEKLLYLDISYTNTKIDFDGIFLGLISLNTLKMAGNSFKDNTLSNVFTNTTNLTFLDLSKCQLEQISRGVFDTLYRLQLLNMSHNNLLFLDPSHYKQLYSLRTLDCSFNRIETSKGILQHFPKSLAVFNLTNNSVACICEYQNFLQWVKDQKMFLVNVEQMKCASPIDMKASLVLDFTNSTCYIYKTIISVSVVSVLVVATVAFLIYHFYFHLILIAGCKKYSRGESIYDAFVIYSSQNEDWVRNELVKNLEEGVPRFQLCLHYRDFIPGVAIAANIIQEGFHKSRKVIVVVSRHFIQSRWCIFEYEIAQTWQFLSSRSGIIFIVLEKVEKSLLRQQVELYRLLSRNTYLEWEDNALGRHIFWRRLKKALLDGKALNPDETSEEEQEATTLT
**Q.** B1 was tested. Which binding did it give?
**A.** binds
